For two molecules, binding results are on record in publication PMC7689938, “Abscisic acid promotes jasmonic acid biosynthesis via a ‘SAPK10‐bZIP72‐AOC’ pathway to synergistically inhibit seed germination in rice (Oryza sativa)” (The New Phytologist, 2020).

Results are given in words; binding and its absence hold for the method and conditions named. Some binding calls cover weakened binding; strength is not graded here. Where a sequence is shown, tags or fusion partners need not be part of it.

This assay deals with T1, SAPK10 fused to the GAL4-binding domain (rice (Oryza sativa L. ssp. japonica cv Nipponbare)) (UniProt Q75H77).
T1 sequence: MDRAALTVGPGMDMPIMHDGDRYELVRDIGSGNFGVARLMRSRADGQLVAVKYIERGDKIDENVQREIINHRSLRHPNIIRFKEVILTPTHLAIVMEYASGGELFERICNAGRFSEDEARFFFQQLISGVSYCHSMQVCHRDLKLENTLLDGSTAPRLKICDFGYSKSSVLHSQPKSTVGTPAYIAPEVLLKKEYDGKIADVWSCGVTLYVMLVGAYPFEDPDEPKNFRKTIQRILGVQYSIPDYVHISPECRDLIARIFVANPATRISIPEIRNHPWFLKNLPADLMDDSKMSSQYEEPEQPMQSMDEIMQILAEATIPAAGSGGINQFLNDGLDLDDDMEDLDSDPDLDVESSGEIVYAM
Briefly: two-hybrid; Matchmaker GAL4 two-hybrid system, constructs cotransformed into yeast strain Y2H Gold, selected on medium lacking Leu, Trp and His with 0.04 mg/ml X-alpha-Gal and 100 ng/ml Aureobasidin A.

B1: His-SAPK10 (enzyme, UniProt Q75H77 1-362, looked up)
chain: MDRAALTVGPGMDMPIMHDGDRYELVRDIGSGNFGVARLMRSRADGQLVAVKYIERGDKIDENVQREIINHRSLRHPNIIRFKEVILTPTHLAIVMEYASGGELFERICNAGRFSEDEARFFFQQLISGVSYCHSMQVCHRDLKLENTLLDGSTAPRLKICDFGYSKSSVLHSQPKSTVGTPAYIAPEVLLKKEYDGKIADVWSCGVTLYVMLVGAYPFEDPDEPKNFRKTIQRILGVQYSIPDYVHISPECRDLIARIFVANPATRISIPEIRNHPWFLKNLPADLMDDSKMSSQYEEPEQPMQSMDEIMQILAEATIPAAGSGGINQFLNDGLDLDDDMEDLDSDPDLDVESSGEIVYAM
notes: SAPK10 (SnRK2 type kinase), rice; full-length CDS in pET28a; source: Transetta (DE3) cells, purified (6 x His-Tagged Protein Purification Kit)
Consider B1, for which the binding entry is “binds”.

B2: His-SAPK10^S177A (enzyme, UniProt Q75H77 1-362, looked up)
chain: MDRAALTVGPGMDMPIMHDGDRYELVRDIGSGNFGVARLMRSRADGQLVAVKYIERGDKIDENVQREIINHRSLRHPNIIRFKEVILTPTHLAIVMEYASGGELFERICNAGRFSEDEARFFFQQLISGVSYCHSMQVCHRDLKLENTLLDGSTAPRLKICDFGYSKSSVLHSQPKATVGTPAYIAPEVLLKKEYDGKIADVWSCGVTLYVMLVGAYPFEDPDEPKNFRKTIQRILGVQYSIPDYVHISPECRDLIARIFVANPATRISIPEIRNHPWFLKNLPADLMDDSKMSSQYEEPEQPMQSMDEIMQILAEATIPAAGSGGINQFLNDGLDLDDDMEDLDSDPDLDVESSGEIVYAM
notes: SAPK10, rice, Ser177 replaced by alanine; full-length CDS in pET28a; source: Transetta (DE3) cells, purified (6 x His-Tagged Protein Purification Kit)
In the case of B2, the binding entry is “binds”.
